## Library screen at single concentrations

Source: ChEMBL document CHEMBL3988442, “University of Dundee, Small-Polar-MMV Screening Library” (2021).

Mtb glucose medium: 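Growth of Mycobacterium tuberculosis over 3 days (7H9 medium with glucose and tyloxapol); the read-out is not stated. Concentration: 500 µM. Higher reads as more growth inhibition (inferred: compounds with an IC50 in retests scored well above the rest). Size under these conditions: about 18,000 compounds, about 1,400 of them at 50% or above in at least one test.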
Mtb cholesterol medium: 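Growth of Mycobacterium tuberculosis over 4 days (cholesterol / DPPC medium with tyloxapol); the read-out is not stated. Concentration: 500 µM. Higher reads as more growth inhibition (inferred: compounds with an IC50 in retests scored well above the rest). Size under these conditions: about 18,000 compounds, about 900 of them at 50% or above in at least one test.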

The filed quantity is “Percent Effect” (%). The controls that fix the scale are not given in the record; negative values are as filed. This is an unselected part of the compounds tested.

SMILES,Mtb glucose medium,Mtb cholesterol medium
O=C(Nc1cncc(Br)c1O)C1=CCCC1,-4.25,-6.654
N[C@@H]1C[C@H]1c1ccc(F)cc1,37.69,16.8
CCOCc1nc(C(C)N)no1 (configuration not stated),12.38,4.611
Cc1cc(=O)n(C)cc1NS(=O)(=O)c1ccccc1F,-10.38,-12.22
CCc1nncn1C1CCNCC1,-8.966,-17.94
CC(NCC1OCCO1)c1ccc(Cl)s1 (configuration not stated),23.01,28.98
COc1ccc(C(C)N)c(C)c1OC (configuration not stated),2.429,-11.91
Cc1n[nH]c(C)c1NC(=O)NCc1ccco1,8.052,-9.737
NC(=O)CCC(=O)c1ccc2c(c1)OCCO2,34.72,14.9
O=C(NC(CO)Cc1ccc(F)cc1)c1cnsn1 (configuration not stated),44.45,41.3
CN(C)C(=O)N1CCN(CCc2ccncc2)CC1,7.112,-13.13
CCc1ccc(OCn2cc(N)cn2)cc1,73.03,77.29
O=C(c1cnc[nH]1)N1CCC(O)(CN2CCCC2)CC1,-6.682,-16.9
Cn1cc(C2CCCN2)cn1 (configuration not stated),7.305,3.947
COc1cc(OC)cc(C2(F)CCNC2)c1 (configuration not stated),34.68,11.69
CC(=O)N1CCNC1=O,-3.898,-17.28
CN(C)C(=O)C(C)(C)NC(=O)c1cc(N(C)C)ccn1,13.5,8.332
CC(C)n1c(N)nnc1SCc1cccnc1,-4.833,-5.423
Cc1ccncc1NC1CS(=O)(=O)c2ccccc21 (configuration not stated),96.08,101.1
O=C(NCC(F)(F)F)c1ccccc1NCCCO,13.25,-5.639
CCCNC(=O)c1ccc2c(c1)CC(=O)N2C,12.65,-3.409
CCC1(CN)OCCc2ccccc21 (configuration not stated),11.09,-4.043
CNc1snc(C)c1C(=O)N1CCN(C2CC2)CC1,-0.6201,-4.082
O=C(c1ccc(CN2CCCCC2)cc1)N1CC(O)C1,4.453,4.588
Cc1noc(C)c1C(=O)NC1CCCN(S(C)(=O)=O)C1 (configuration not stated),5.639,-1.271
NC(=O)CCN1CCC(CN2CCCC2)CC1,19.98,5.433
NC(=O)CSc1nc(Cc2cccs2)n[nH]1,19.05,-9.272
O=S(=O)(NC1CCCC1)c1cncc(Cl)c1,69.36,42.29
COC[C@H](O)CNC(C)c1ccc(Cl)s1 (some centres not stated),4.635,-7.179
CC(C)(C)NC(=O)CNC(C(N)=O)c1ccccc1 (configuration not stated),-5.366,-2.442
CCCN1CCC(NC(=O)CN2CSCC2=O)CC1,-5.308,-8.68
COc1ccccc1CNCC1CCCS1(=O)=O (configuration not stated),6.716,5.683
C[C@@H]1CNC[C@H]1c1nc(-c2ccncc2)no1,16.18,4.358
COCCN(C)CCNC(=O)c1cccc(Cl)c1,11.59,10.91
CCCc1nc(C)cc(NCCN(C)S(C)(=O)=O)n1,8.459,8.083
COc1ccc(CN2CCC(N)C2=O)c(OC)c1 (configuration not stated),15.28,-15.07
O=c1[nH]cnc2ccc(Cl)cc12,-1.053,-4.459
O=S1(=O)CCCN1C1CCNCC1,-2.785,-3.255
CCOc1cccc(CN2C(=O)CCC2=O)n1,20.46,14.85
COc1ncc(C(=O)N[C@@H]2COCC[C@H]2O)cn1,2.05,-7.373
NC(=O)CS(=O)(=O)Cc1ccc(Cl)cc1,18.3,10.48
Cc1nn(C)c(C)c1CCC(=O)N1CCCN(C)CC1,20.79,9.821
O=C(CN1CCCC1)NCC1COc2ccccc2O1 (configuration not stated),8.242,-2.161
NC(=O)c1cc(N2CCOCC2)nc2ccc(F)cc12,-4.038,-14
CCOC(=O)CC1CCN(C(=O)C2CCNCC2)CC1,-5.677,-5.19
Cc1ccccc1NC(=O)CC1NCCNC1=O (configuration not stated),12.24,13.28

5 of the entries, repeated:

| SMILES | Mtb glucose medium | Mtb cholesterol medium |
|---|---|---|
| `Cc1noc(C)c1C(=O)NC1CCCN(S(C)(=O)=O)C1` (configuration not stated) | 5.639 | -1.271 |
| `NC(=O)c1cc(N2CCOCC2)nc2ccc(F)cc12` | -4.038 | -14 |
| `CC(=O)N1CCNC1=O` | -3.898 | -17.28 |
| `Cc1ccncc1NC1CS(=O)(=O)c2ccccc21` (configuration not stated) | 96.08 | 101.1 |
| `C[C@@H]1CNC[C@H]1c1nc(-c2ccncc2)no1` | 16.18 | 4.358 |